Laboratory results: patent publication US20220064272A1
These are yes or no findings as the source states them, for the method shown. Some binding calls cover weakened binding; strength is not graded here.

Amino acid sequences for entries named in this document (tags omitted). A change or cut given only in a name is not applied to a line headed by its entry.
UniProt P10636: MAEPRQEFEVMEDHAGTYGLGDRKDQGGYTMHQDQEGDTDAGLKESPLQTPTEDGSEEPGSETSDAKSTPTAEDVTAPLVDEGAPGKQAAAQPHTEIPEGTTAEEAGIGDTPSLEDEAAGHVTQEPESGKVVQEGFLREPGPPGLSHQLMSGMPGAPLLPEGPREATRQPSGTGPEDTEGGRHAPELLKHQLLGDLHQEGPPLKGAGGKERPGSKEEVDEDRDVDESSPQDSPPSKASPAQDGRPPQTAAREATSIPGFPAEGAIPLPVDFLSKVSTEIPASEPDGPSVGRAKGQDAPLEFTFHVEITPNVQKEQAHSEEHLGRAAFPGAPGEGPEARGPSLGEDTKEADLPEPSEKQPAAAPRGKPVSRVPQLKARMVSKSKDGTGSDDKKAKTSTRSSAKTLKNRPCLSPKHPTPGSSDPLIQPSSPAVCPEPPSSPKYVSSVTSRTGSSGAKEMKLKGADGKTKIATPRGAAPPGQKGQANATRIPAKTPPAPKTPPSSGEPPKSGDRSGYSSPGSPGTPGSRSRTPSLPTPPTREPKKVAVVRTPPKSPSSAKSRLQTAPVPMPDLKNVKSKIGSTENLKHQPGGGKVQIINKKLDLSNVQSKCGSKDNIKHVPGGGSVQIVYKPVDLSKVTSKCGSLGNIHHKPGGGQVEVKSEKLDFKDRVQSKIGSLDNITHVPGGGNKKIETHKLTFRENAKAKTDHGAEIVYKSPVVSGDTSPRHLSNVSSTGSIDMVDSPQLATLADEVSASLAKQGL

Assays:
[1] = molecular target: TauC3 (C-terminally truncated tau fragment ending at aspartate 421 of htau40) (human) (UniProt P10636); assay: ELISA, Octet, Biacore
[2] = molecular target: TauC3 (C-terminally truncated tau fragment ending at aspartate 421 of htau40) (human) (UniProt P10636); assay: binding ELISA and Octet screening
[3] = molecular target: TauC3 (C-terminally truncated tau fragment ending at aspartate 421 of htau40) (human) (UniProt P10636); assay: summary of ELISA, Octet and Biacore
[4] = molecular target: TauC3 (C-terminally truncated tau fragment ending at aspartate 421 of htau40) (human) (UniProt P10636); assay: binding ELISA at EC80 after 10 min heating
[5] = molecular target: TauC3 (C-terminally truncated tau fragment ending at aspartate 421 of htau40) (human) (UniProt P10636); assay: binding ELISA to TauC3 after 21 days in serum
[6] = molecular target: TauC3 (C-terminally truncated tau fragment ending at aspartate 421 of htau40) (human) (UniProt P10636); assay: SPR (Biacore) kinetics, TauC3 amine-coupled on CM5
[7] = molecular target: TauC3 (C-terminally truncated tau fragment ending at aspartate 421 of htau40) (human) (UniProt P10636); assay: SPR (Biacore) kinetics, summary sentence to Table 16
[8] = molecular target: TauC3 (C-terminally truncated tau fragment ending at aspartate 421 of htau40) (human) (UniProt P10636); assay: SPR (Biacore) off-rate ranking, TauC3 amine-coupled on CM5
[9] = molecular target: TauC3 (C-terminally truncated tau fragment ending at aspartate 421 of htau40) (human) (UniProt P10636); assay: binding ELISA on TauC3 at the EC80 concentration after 10 min heating at the temperature shown
[10] = molecular target: TauC3 (C-terminally truncated tau fragment ending at aspartate 421 of htau40) (human) (UniProt P10636); assay: binding ELISA on TauC3 after 21 days at 37 C in PBS or mouse, human, cynomolgus serum, with non-incubated control
[11] = molecular target: TauC3 (C-terminally truncated tau fragment ending at aspartate 421 of htau40) (human) (UniProt P10636); assay: Biacore kinetics (Table 16)
[12] = molecular target: TauC3 (C-terminally truncated tau fragment ending at aspartate 421 of htau40) (human) (UniProt P10636); assay: BLI (Octet) screening, 10 nM TauC3
[13] = molecular target: TauC3 (C-terminally truncated tau fragment ending at aspartate 421 of htau40) (human) (UniProt P10636); assay: binding ELISA, TauC3 coated

Measured: binding

B1: Tau01 HMKE HuG4k (antibody, V domains shown)
VH: LVQLVESGGGLVQPGGSLKLSCAASGFTFNTYAMNWVRQASGKGLEWVARIRSKSNNYATYYAASVKGRFTISRDDSKSMAYLQMDSLKTEDTAVYYCVGGGDFWGQGTLVTVSS
VL: DIQMTQSPSSLSASVGDRVTITCRASQEISVYLGWFQQKPGKAPKRLIYGAFKLQSGVPSRFSGSRSGTEFTLTISSLQPEDFATYYCLQYVRYPWTFGGGTKVEIK
binds: [1] | [2] | [3] | [4] | [5] | [6] | [7] | [8] | [9] | [10]

B2: Tau01 HMKN HuG4k (antibody, V domains shown)
VH: LVQLVESGGGLVQPGGSLKLSCAASGFTFNTYAMNWVRQASGKGLEWVARIRSKSNNYATYYAASVKGRFTISRDDSKSMAYLQMDSLKTEDTAVYYCVGGGDFWGQGTLVTVSS
VL: DIQMTQSPSSLSASVGDRVTITCRASQEISVYLGWYQQKPGKAPKRLIYGAFTLQSGVPSRFSGSRSGTEYTLTISSLQPEDFATYYCLQYVRYPWTFGGGTKVEIK
binds: [1] | [2] | [3] | [4] | [5] | [6] | [7] | [8] | [9] | [10]

B3: Tau01 HMKO HuG4k (antibody, V domains shown)
VH: LVQLVESGGGLVQPGGSLKLSCAASGFTFNTYAMNWVRQASGKGLEWVARIRSKSNNYATYYAASVKGRFTISRDDSKSMAYLQMDSLKTEDTAVYYCVGGGDFWGQGTLVTVSS
VL: DIQMTQSPSSLSASVGDRVTITCRASQEISVYLGWYQQKPGKAPKRLIYGAFSLQSGVPSRFSGSRSGTEYTLTISSLQPEDFATYYCLQYVRYPWTFGGGTKVEIK
binds: [1] | [2] | [3] | [4] | [5] | [6] | [7] | [8] | [9] | [10]

B4: Tau01 HMKP HuG4k (antibody, V domains shown)
VH: LVQLVESGGGLVQPGGSLKLSCAASGFTFNTYAMNWVRQASGKGLEWVARIRSKSNNYATYYAASVKGRFTISRDDSKSMAYLQMDSLKTEDTAVYYCVGGGDFWGQGTLVTVSS
VL: DIQMTQSPSSLSASVGDRVTITCRASQEISVYLGWFQQKPGKAPKRLIYGAFKLQSGVPSRFSGSRSGTEYTLTISSLQPEDFATYYCLQYVRYPWTFGGGTKVEIK
binds: [1] | [11] | [2] | [3] | [4] | [5] | [6] | [7] | [8] | [9] | [10]

B5: Tau01 HMKM HuG4k (antibody, V domains shown)
VH: LVQLVESGGGLVQPGGSLKLSCAASGFTFNTYAMNWVRQASGKGLEWVARIRSKSNNYATYYAASVKGRFTISRDDSKSMAYLQMDSLKTEDTAVYYCVGGGDFWGQGTLVTVSS
VL: DIQMTQSPSSLSASVGDRVTITCRASQEISVYLSWFQQKPGKAIKRLIYGAFSLQSGVPSRFSGSRSGTEYTLTISSLQPEDFATYYCLQYVRYPWTFGGGTKVEIK
binds: [1] | [12] | [3] | [5] | [7] | [8]

B6: Tau01 HMKA (antibody, V domains shown)
VH: LVQLVESGGGLVQPGGSLKLSCAASGFTFNTYAMNWVRQASGKGLEWVARIRSKSNNYATYYAASVKGRFTISRDDSKSMAYLQMDSLKTEDTAVYYCVGGGDFWGQGTLVTVSS
VL: DIQMTQSPSSLSASVGDRVTITCRASQEISVYLGWYQQKPGKAPKRLIYGAFKLQSGVPSRFSGSRSGTEFTLTISSLQPEDFATYYCLQYVRYPWTFGGGTKVEIK
binds: [13] | [2]

B7: Tau01 HMKB (antibody, V domains shown)
VH: LVQLVESGGGLVQPGGSLKLSCAASGFTFNTYAMNWVRQASGKGLEWVARIRSKSNNYATYYAASVKGRFTISRDDSKSMAYLQMDSLKTEDTAVYYCVGGGDFWGQGTLVTVSS
VL: DIQMTQSPSSLSASVGDRVTITCRASQEISVYLSWFQQKPGKAIKRLIYGAFTLQSGVPSRFSGSRSGSEYTLTISSLQPEDFATYYCLQYVRYPWTFGGGTKVEIK
binds: [13] | [2]

B8: Tau01 HMKG (antibody, V domains shown)
VH: LVQLVESGGGLVQPGGSLKLSCAASGFTFNTYAMNWVRQASGKGLEWVARIRSKSNNYATYYAASVKGRFTISRDDSKSMAYLQMDSLKTEDTAVYYCVGGGDFWGQGTLVTVSS
VL: DIQMTQSPSSLSASVGDRVTITCRASQEISVYLGWYQQKPGKAPKRLIYGAFTLQSGVPSRFSGSRSGTEFTLTISSLQPEDFATYYCLQYVRYPWTFGGGTKVEIK
binds: [13] | [2]

B9: Tau01 HMKI (antibody, V domains shown)
VH: LVQLVESGGGLVQPGGSLKLSCAASGFTFNTYAMNWVRQASGKGLEWVARIRSKSNNYATYYAASVKGRFTISRDDSKSMAYLQMDSLKTEDTAVYYCVGGGDFWGQGTLVTVSS
VL: DIQMTQSPSSLSASVGDRVTITCRASQEISVYLGWYQQKPGKAPKRLIYGAFKLQSGVPSRFSGSRSGTEYTLTISSLQPEDFATYYCLQYVRYPWTFGGGTKVEIK
binds: [13] | [2]

B10: Tau01 HMKJ (antibody, V domains shown)
VH: LVQLVESGGGLVQPGGSLKLSCAASGFTFNTYAMNWVRQASGKGLEWVARIRSKSNNYATYYAASVKGRFTISRDDSKSMAYLQMDSLKTEDTAVYYCVGGGDFWGQGTLVTVSS
VL: DIQMTQSPSSLSASVGDRVTITCRASQEISVYLGWYQQKPGKAPKRLIYGAFSLQSGVPSRFSGSRSGTEFTLTISSLQPEDFATYYCLQYVRYPWTFGGGTKVEIK
binds: [13] | [2]

B11: Tau01 HMKC (antibody, V domains shown)
VH: LVQLVESGGGLVQPGGSLKLSCAASGFTFNTYAMNWVRQASGKGLEWVARIRSKSNNYATYYAASVKGRFTISRDDSKSMAYLQMDSLKTEDTAVYYCVGGGDFWGQGTLVTVSS
VL: DIQMTQSPSSLSASVGDRVTITCRASQEISVYLSWFQQKPGKAPKRLIYGAFKLQSGVPSRFSGSRSGTEYTLTISSLQPEDFATYYCLQYVRYPWTFGGGTKVEIK
binds: [13]

B12: Tau01 HMKL (antibody, V domains shown)
VH: LVQLVESGGGLVQPGGSLKLSCAASGFTFNTYAMNWVRQASGKGLEWVARIRSKSNNYATYYAASVKGRFTISRDDSKSMAYLQMDSLKTEDTAVYYCVGGGDFWGQGTLVTVSS
VL: DIQMTQSPSSLSASVGDRVTITCRASQEISVYLSWFQQKPGKAIKRLIYGAFKLQSGVPSRFSGSRSGTEYTLTISSLQPEDFATYYCLQYVRYPWTFGGGTKVEIK
binds: [13]

B13: Tau01 HCKM (antibody, V domains shown)
VH: LVQLVESGGGLVQPGGSLKLSCAASGFTFNTYAMNWVRQASGKGLEWVGRIRSKSNNYATYYAASVKGRFTISRDDSKSMAYLQMDSLKTEDTAVYYCVGGGDFWGQGTLVTVSS
VL: DIQMTQSPSSLSASVGDRVTITCRASQEISVYLSWFQQKPGKAIKRLIYGAFSLQSGVPSRFSGSRSGTEYTLTISSLQPEDFATYYCLQYVRYPWTFGGGTKVEIK
binds: [12]
